Measurements reported in PubChem BioAssay AID1259254 (NCATS, 2017).

Screen: 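Gene knock-downs that lead to re-replication, shown by excess G2 DNA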 (primary screen)
System: human HCT116 colorectal cancer cells
Reagents: single siRNA against human genes
Duration: 3 days
Detection: 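Imaged Hoechst DNA stain sorts each cell into a cycle phase by DNA amount; per plate, G2 fraction set to 0% for non-targeting and 100% for GMNN siRNA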
Reading the numbers: G2 robust z-score and G2 cells, % of GMNN control: higher = more G2 cells, more excess DNA replication
Rule for the call: 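Active siRNAs have a G2 robust z of 5 or more median absolute deviations over the median, which in these data means about 38% or higher of GMNN control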
Shown is an unselected part of about 59,000 deposited reagents. Of all reagents, about 1,550 (2.6%) were called active. 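G2 share is only a proxy for re-replication; each gene was hit by three separate siRNAs, and active genes were retested.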 A number with no mark means an inactive call. Reagents against one gene are numbered here. Further read-outs or replicates are left out here. The record does not give: the amount of reagent.

| gene | reagent | G2 robust z-score | G2 cells, % of GMNN control |
| --- | --- | --- | --- |
| LAPTM5 | 1 | -0.326 | 0.67 |
| LAPTM5 | 2 | -0.155 | 1.88 |
| LAPTM5 | 3 | 2.82 | 22.8 |
| ODAD2 | 1 | -0.517 | -0.67 |
| ODAD2 | 2 | 0.945 | 9.62 |
| ODAD2 | 3 | -0.634 | -1.49 |
| SMIM20 | 1 | -0.942 | -3.66 |
| SMIM20 | 2 | -0.438 | -0.111 |
| SMIM20 | 3 | 0.185 | 4.27 |
| TARP | 1 | 3.61 | 28.4 |
| TARP | 2 | 1.79 | 15.6 |
| TARP | 3 | 0.59 | 7.12 |
| CPEB3 | 1 | -0.45 | -0.2 |
| CPEB3 | 2 | -0.613 | -1.34 |
| CPEB3 | 3 | -0.61 | -1.32 |
| ING4 | 1 | 0.267 | 4.84 |
| ING4 | 2 | 0.977 | 9.84 |
| ING4 | 3 | -0.416 | 0.0426 |
| NUP37 | 1 | -0.592 | -1.2 |
| NUP37 | 2 | -0.602 | -1.27 |
| NUP37 | 3 | 0.215 | 4.48 |
| FAM156B | 1 | -0.247 | 1.23 |
| FAM156B | 2 | 0.0673 | 3.44 |
| FAM156B | 3 | 0.624 | 7.36 |
| GPR171 | 1 | 1.41 | 12.9 |
| GPR171 | 2 | 2.34 | 19.4 |
| GPR171 | 3 | 0.732 | 8.12 |
| TMX4 | 1 | -0.0977 | 2.28 |
| TMX4 | 2 | -0.174 | 1.74 |
| TMX4 | 3 | -0.218 | 1.43 |
| SLC66A1 | 1 | -0.769 | -2.45 |
| SLC66A1 | 2 | -0.576 | -1.08 |
| SLC66A1 | 3 | -1.02 | -4.18 |
| NAA10 | 1 | 4.94 | 37.7 |
| NAA10 | 2 | 7.39 (active) | 55 |
| NAA10 | 3 | 0.804 | 8.62 |
| GPR142 | 1 | 2.32 | 19.3 |
| GPR142 | 2 | 0.148 | 4.01 |
| GPR142 | 3 | -0.0614 | 2.54 |
| TRE17 (retired record) | 1 | 0.093 | 3.62 |
| TRE17 (retired record) | 2 | -0.881 | -3.23 |
| TRE17 (retired record) | 3 | -0.453 | -0.216 |
| SF3B3 | 1 | 3.44 | 27.2 |
| SF3B3 | 2 | 0.306 | 5.12 |
| SF3B3 | 3 | 1.47 | 13.3 |
| RHOG | 1 | 0.466 | 6.25 |
| RHOG | 2 | -0.254 | 1.18 |
| RHOG | 3 | 0.464 | 6.23 |
| NOM1 | 1 | -0.599 | -1.25 |
| NOM1 | 2 | -0.103 | 2.24 |
| NOM1 | 3 | 1.19 | 11.3 |
| CNTNAP3 | 1 | 0.735 | 8.14 |
| CNTNAP3 | 2 | 0.214 | 4.47 |
| CNTNAP3 | 3 | 0.129 | 3.88 |
| MTCL2 | 1 | 0.273 | 4.89 |
| MTCL2 | 2 | -0.0273 | 2.78 |
| MTCL2 | 3 | -0.135 | 2.02 |
| SYNGAP1 | 1 | 1.19 | 11.4 |
| SYNGAP1 | 2 | 1.56 | 14 |
| SYNGAP1 | 3 | 2.13 | 17.9 |
| HSPBP1 | 1 | 6.97 (active) | 52 |
| HSPBP1 | 2 | -1.42 | -7.05 |
| HSPBP1 | 3 | 0.439 | 6.06 |
| PRR15 | 1 | 1.74 | 15.2 |
| PRR15 | 2 | 2.93 | 23.6 |
| PRR15 | 3 | -0.808 | -2.72 |
| TPBGL | 1 | -0.715 | -2.06 |
| TPBGL | 2 | -0.311 | 0.782 |
| TPBGL | 3 | -0.0819 | 2.39 |

An excerpt from above, limited to “G2 robust z-score”:
NAA10 #3	0.804
GPR142 #1	2.32
GPR142 #2	0.148
GPR142 #3	-0.0614
TRE17 (retired record) #1	0.093
TRE17 (retired record) #2	-0.881
TRE17 (retired record) #3	-0.453
